According to patent US20020037559A1, “PROCESS FOR PRODUCING N-PROTECTED D-PROLINE DERIVATIVES” (priority 1996, published 2002):
For at least one compound, name, drawing or mass did not settle the structure.

Columns and labels:
Experiment in all cases: Enzymatic hydrolysis of N-protected amino acids by whole cells
Format in all cases: cell-based
Conditions in all cases: substrate 100 mM, 100 mM potassium phosphate buffer pH 7.0, 30° C.
Arthrobacter sp. HSZ5 = test system: Arthrobacter sp. HSZ5
[1] = test system: Alcaligenes xylosoxidans ssp. denitrificans HSZ17
[2] = test system: Alcaligenes piechaudii K4
Bacillus simplex K2 = test system: Bacillus simplex K2

Measured: Enzymatic hydrolysis by whole cells

O=C(O)C1CCCCN1C(=O)OCc1ccccc1 (racemic) [N-Z-DL-pipecolic acid, N-benzyloxycarbonyl-DL-pipecolic acid]
+: Arthrobacter sp. HSZ5 | [1] | [2]

O=C(N[C@@H](CO)C(=O)O)OCc1ccccc1 [N-Z-L-serine]
+: [1] | Bacillus simplex K2 | [2]
